Assay results from PMC7819943, “Rice protein-binding microarrays: a tool to detect cis-acting elements near promoter regions in rice”.
The other results are listed elsewhere or left out.

Target: T1, OsSMF1 (Oryza sativa, UniProt Q6ZLB0 1-436)
T1 sequence: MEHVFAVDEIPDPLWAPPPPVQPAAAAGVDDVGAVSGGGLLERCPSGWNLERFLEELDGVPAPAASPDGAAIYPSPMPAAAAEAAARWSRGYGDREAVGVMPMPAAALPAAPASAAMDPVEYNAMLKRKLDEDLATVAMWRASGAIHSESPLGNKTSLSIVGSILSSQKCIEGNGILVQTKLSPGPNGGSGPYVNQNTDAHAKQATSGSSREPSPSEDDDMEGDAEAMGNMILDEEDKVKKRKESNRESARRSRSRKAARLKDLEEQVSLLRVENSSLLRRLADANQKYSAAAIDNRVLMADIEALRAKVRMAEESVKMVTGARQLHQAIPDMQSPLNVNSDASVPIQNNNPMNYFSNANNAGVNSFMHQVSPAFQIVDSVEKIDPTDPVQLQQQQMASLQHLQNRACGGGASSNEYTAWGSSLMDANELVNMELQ
Test: protein-binding microarray (RPBM); PBS, 2% BSA, 51.3 ng/ul salmon testes DNA, 50 uM zinc acetate, 200 nM TF, 25 C, 1 h; high values mean tight binding
Settings: protein: recombinant; tags: N-terminal polyhistidine and DsRed monomer fusion (pET32a); chain copies: 2; label: CyDye5-dUTP incorporated in the synthesized complementary strand; 3' TTTTT single-stranded linker to array surface; dsDNA, one strand shown
Procedure, shortened: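 Binding signal is reported as fluorescence intensity per feature (arbitrary units) from an Axon 4000B scanner. Incubation used 200 nM of each Ni–NTA-purified, N-terminally polyhistidine- and DsRed-fused transcription factor from E. coli BL21-CodonPlus on a double-stranded custom Agilent array for 1 h at 25 °C, with 50 µM zinc acetate in the buffer, followed by washing.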

Row | Sequence | binding signal
1 | TAACATAGTTGATATTGTTTAATGTCATGACAAAGAATGACGGAGTCACCTAGTGCAG | 3580 fluorescence intensity (a.u.)
2 | AGCTCCACAACATCGAAGCAGTGACACTGTCCCGAACTCGCGGAGTCACCTAGTGCAG | 22600 fluorescence intensity (a.u.)
3 | TTGCTGAACTGCATATGTCAGCTTAACTCTGAAACATCATCGGAGTCACCTAGTGCAG | 4090 fluorescence intensity (a.u.)
4 | AGCTACCACTTCACACTCAGCTAGTCAAGATTACCTGGCACGGAGTCACCTAGTGCAG | 3400 fluorescence intensity (a.u.)
5 | TGGAAGGAAGAGCAAACAAAGTTGGCTGCCACGTCAGAAACGGAGTCACCTAGTGCAG | 14000 fluorescence intensity (a.u.)
6 | TATCGATTCCAGCCAACGATGACACTATGACTTCAATTCGCGGAGTCACCTAGTGCAG | 4280 fluorescence intensity (a.u.)
7 | TAATTAAATTGTCATATCACTTCTTAACTTATTGGACTAACGGAGTCACCTAGTGCAG | 3220 fluorescence intensity (a.u.)
8 | CTGCCGATCCTAGGGTGCCGCCGTCGGATGCAGTCTAGGCCGGAGTCACCTAGTGCAG | 3190 fluorescence intensity (a.u.)
9 | GCCAGCCCACCTCACCTGTTCCACAATACTAGTACAGCCCCGGAGTCACCTAGTGCAG | 22300 fluorescence intensity (a.u.)
10 | TATCACCGGCACGTGTCACTCCTAGGCGTTGTCAAACGTCCGGAGTCACCTAGTGCAG | 7220 fluorescence intensity (a.u.)
11 | CGTTAGTTACACACCGCACTCACACTGCCACGTGTGATCACGGAGTCACCTAGTGCAG | 16300 fluorescence intensity (a.u.)
12 | AAACAAGTTCCATGTCACACCGCATATTTCGAAATTAGCACGGAGTCACCTAGTGCAG | 5020 fluorescence intensity (a.u.)
13 | AGCTTTCCCATCGCCGCCGCGTCCATGGGGCCAGACCAACCGGAGTCACCTAGTGCAG | 3430 fluorescence intensity (a.u.)
14 | TGGTTCAAGTACCCACTGAGGTATGTAACACATTTGATCGCGGAGTCACCTAGTGCAG | 36300 fluorescence intensity (a.u.)
15 | ATGTAACTGTTGCTTCTAACTTCTGTTCCCCGTCACTGTGCGGAGTCACCTAGTGCAG | 6280 fluorescence intensity (a.u.)
16 | TGAAACGACGTCATCCAACCCGCGGGGTCTTTGCACGAGCCGGAGTCACCTAGTGCAG | 3720 fluorescence intensity (a.u.)
17 | GAGAGAGAGAGGAGAAGGCAGCCACGTGGTGGAGCAGGAGCGGAGTCACCTAGTGCAG | 4170 fluorescence intensity (a.u.)
18 | CACTTATATTAGGGGATGGAGGGAGTAGTACATTAACATCCGGAGTCACCTAGTGCAG | 3400 fluorescence intensity (a.u.)
19 | GGGTTGGTGAGGCGGTGGTCGCCGTGGACTCGGCGGCTGACGGAGTCACCTAGTGCAG | 3240 fluorescence intensity (a.u.)
20 | ACTATTAGGTATGTGGTATCCATAACCATGACAATGACCTCGGAGTCACCTAGTGCAG | 9860 fluorescence intensity (a.u.)
21 | AGATGAAGTCATTAGTGATAAGTCAGCTTGACTCATCACACGGAGTCACCTAGTGCAG | 5670 fluorescence intensity (a.u.)

3 records drawn at random from those above, as already listed:
Row | Sequence | binding signal
2 | AGCTCCACAACATCGAAGCAGTGACACTGTCCCGAACTCGCGGAGTCACCTAGTGCAG | 22600 fluorescence intensity (a.u.)
19 | GGGTTGGTGAGGCGGTGGTCGCCGTGGACTCGGCGGCTGACGGAGTCACCTAGTGCAG | 3240 fluorescence intensity (a.u.)
12 | AAACAAGTTCCATGTCACACCGCATATTTCGAAATTAGCACGGAGTCACCTAGTGCAG | 5020 fluorescence intensity (a.u.)

Additional records follow:

Row | Sequence | binding signal
22 | TTCGATTCCACGCAAGATTCCTCATGCTTCGCTAGCCATTCGGAGTCACCTAGTGCAG | 3970 fluorescence intensity (a.u.)
23 | ACTCCTACGCATGTCTGGCGTCACCCTGATGAGGCCAAATCGGAGTCACCTAGTGCAG | 5160 fluorescence intensity (a.u.)
24 | TGTCTGCGTCGTCACACTCTCACACACCTCTCGATTCATCCGGAGTCACCTAGTGCAG | 5850 fluorescence intensity (a.u.)
25 | CATCGAGCATGTGAGCAGTCGCCGGCACACTCTACCTCCTCGGAGTCACCTAGTGCAG | 25900 fluorescence intensity (a.u.)
26 | CTGGAATCTGAGGGGAACCACGTCACGTACACAAGTATATCGGAGTCACCTAGTGCAG | 11800 fluorescence intensity (a.u.)
27 | ACAATATTGTCCTGTGCCTTACGTGCGCCCGCAGCCGCGACGGAGTCACCTAGTGCAG | 4700 fluorescence intensity (a.u.)
28 | TGAACCGGCCGGTTTTCATGTGAACCGTGAACCGTAATAACGGAGTCACCTAGTGCAG | 3240 fluorescence intensity (a.u.)
29 | TTGTGCAACGTCTTGTTATGAGTTAGCATCATGTGTAGCACGGAGTCACCTAGTGCAG | 3810 fluorescence intensity (a.u.)
30 | GAGGATTGACTGGTTAGGGTTAGATGACTCAAAGGGCATTCGGAGTCACCTAGTGCAG | 3640 fluorescence intensity (a.u.)
31 | ACGAAAGCGTCACGTTAATACCACGTGGGACGAAGATCTACGGAGTCACCTAGTGCAG | 6550 fluorescence intensity (a.u.)
32 | TCACATCCATGGGCCCACTTGTCATCCTCACGCTCTATGACGGAGTCACCTAGTGCAG | 3240 fluorescence intensity (a.u.)
33 | GTGATGACGAGTTCGTCTTCATCGCTTCCGGTGTCGGCTCCGGAGTCACCTAGTGCAG | 3300 fluorescence intensity (a.u.)
34 | CGATGGTGTGTGGGAAGGAGAAAAGGGATGTGGTGATGTGCGGAGTCACCTAGTGCAG | 4250 fluorescence intensity (a.u.)
35 | TGTCCATTCTTCTTGTTGTTGTTCTTGCTCGGGTGGTTAGCGGAGTCACCTAGTGCAG | 3260 fluorescence intensity (a.u.)
36 | CCGAATCGATGGCGACCCAGCTGGTGCGTCCCCGTCCCCGCGGAGTCACCTAGTGCAG | 4120 fluorescence intensity (a.u.)
37 | ATATTTTAAGGGAGTCCATGTGGACTTAATTCCTAGTGGCCGGAGTCACCTAGTGCAG | 4360 fluorescence intensity (a.u.)
38 | TTCCAATGAGAGACTAGTTGATCTTCCAATGGAGTAGCTACGGAGTCACCTAGTGCAG | 18800 fluorescence intensity (a.u.)
39 | GGCCCCACATGTCAGCTACCGCAACAGCTTACTACTTACTCGGAGTCACCTAGTGCAG | 4120 fluorescence intensity (a.u.)
40 | AAGACCAAGAATTGATGCCGTGGAACTTGCGTCGGACTTTCGGAGTCACCTAGTGCAG | 4670 fluorescence intensity (a.u.)
41 | AAGCTTCTTTCCCTCTTACGTCGGCACACGTCACGCAGCTCGGAGTCACCTAGTGCAG | 19700 fluorescence intensity (a.u.)
42 | GATGGTGTTTTATGGCCGAGTTAATGGGCTTTTATGGGCCCGGAGTCACCTAGTGCAG | 21200 fluorescence intensity (a.u.)
